PubChem BioAssay AID1224830 | NIAID, 2016
Purpose: 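Regulators of TLR4 signalling towards TNF-alpha in macrophage-like cells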 (primary screen). System: human THP-1 monocytic leukaemia cells, TNF dual-luciferase reporter clone, PMA-differentiated to macrophage-like cells. Knock-down reagent: siRNA pool against human genes, 50 nM. Timing: LPS for 4 h, given about 3 days after siRNA transfection. Treatment: bacterial LPS (TLR4 ligand), 10 ng/ml. Measured: 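TNF firefly reporter luminescence divided by renilla, normalised to the plate median, then turned into a robust z-score for each replicate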. Scale: TNF reporter robust z-score: higher = stronger TNF reporter response to LPS. Active means: 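a well is active when its z-score exceeds 2.8 or falls below -1.5; control wells carry no call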.
The whole screen tested about 18,000 reagents; below is a part drawn at random. Over the whole deposit, about 2,900 (16%) are marked active. 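Calls are made per well; low scores hint the gene aids the LPS response, high scores that it dampens it.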 Repeated entries: four replicate wells of each siRNA pool.

The opening 2 records, to show the layout:
TLR6 (toll like receptor 6): TNF reporter robust z-score = 3.05; Call = active
TLR6 (toll like receptor 6): TNF reporter robust z-score = 5.26; Call = active

The list itself, from the first entry:
TLR6 (toll like receptor 6): TNF reporter robust z-score = 3.05; Call = active
TLR6 (toll like receptor 6): TNF reporter robust z-score = 5.26; Call = active
TLR6 (toll like receptor 6): TNF reporter robust z-score = 1.73; Call = inactive
TLR6 (toll like receptor 6): TNF reporter robust z-score = 3.03; Call = active
FOXD4L4 (forkhead box D4 like 4): TNF reporter robust z-score = 0.58; Call = inactive
FOXD4L4 (forkhead box D4 like 4): TNF reporter robust z-score = 3.97; Call = active
FOXD4L4 (forkhead box D4 like 4): TNF reporter robust z-score = 0.83; Call = inactive
FOXD4L4 (forkhead box D4 like 4): TNF reporter robust z-score = 1.95; Call = inactive
HS6ST1 (heparan sulfate 6-O-sulfotransferase 1): TNF reporter robust z-score = -0.4; Call = inactive
HS6ST1 (heparan sulfate 6-O-sulfotransferase 1): TNF reporter robust z-score = -0.29; Call = inactive
HS6ST1 (heparan sulfate 6-O-sulfotransferase 1): TNF reporter robust z-score = -0.27; Call = inactive
HS6ST1 (heparan sulfate 6-O-sulfotransferase 1): TNF reporter robust z-score = -0.46; Call = inactive
MIEF2 (mitochondrial elongation factor 2): TNF reporter robust z-score = 1.08; Call = inactive
MIEF2 (mitochondrial elongation factor 2): TNF reporter robust z-score = 1.21; Call = inactive
MIEF2 (mitochondrial elongation factor 2): TNF reporter robust z-score = -0.16; Call = inactive
MIEF2 (mitochondrial elongation factor 2): TNF reporter robust z-score = 0.44; Call = inactive
SASH3 (SAM and SH3 domain containing 3): TNF reporter robust z-score = -1.4; Call = inactive
SASH3 (SAM and SH3 domain containing 3): TNF reporter robust z-score = -1.28; Call = inactive
SASH3 (SAM and SH3 domain containing 3): TNF reporter robust z-score = -1.21; Call = inactive
PLCG2 (phospholipase C gamma 2): TNF reporter robust z-score = 0.36; Call = inactive
PLCG2 (phospholipase C gamma 2): TNF reporter robust z-score = 0.94; Call = inactive
PLCG2 (phospholipase C gamma 2): TNF reporter robust z-score = 0.78; Call = inactive
PLCG2 (phospholipase C gamma 2): TNF reporter robust z-score = 1.43; Call = inactive
OR7E85BP: TNF reporter robust z-score = 2.47; Call = inactive
OR7E85BP: TNF reporter robust z-score = 2.5; Call = inactive
OR7E85BP: TNF reporter robust z-score = 2.36; Call = inactive
OR7E85BP: TNF reporter robust z-score = 0.44; Call = inactive
SUCO (SUN domain containing ossification factor): TNF reporter robust z-score = -1.24; Call = inactive
SUCO (SUN domain containing ossification factor): TNF reporter robust z-score = -1.1; Call = inactive
SUCO (SUN domain containing ossification factor): TNF reporter robust z-score = -0.38; Call = inactive
SUCO (SUN domain containing ossification factor): TNF reporter robust z-score = -1.5; Call = inactive
GPR141 (G protein-coupled receptor 141): TNF reporter robust z-score = -0.06; Call = inactive
GPR141 (G protein-coupled receptor 141): TNF reporter robust z-score = -0.22; Call = inactive
GPR141 (G protein-coupled receptor 141): TNF reporter robust z-score = -0.3; Call = inactive
GPR141 (G protein-coupled receptor 141): TNF reporter robust z-score = 0.07; Call = inactive
PRM1 (protamine 1): TNF reporter robust z-score = 0.49; Call = inactive
PRM1 (protamine 1): TNF reporter robust z-score = -1.2; Call = inactive
PRM1 (protamine 1): TNF reporter robust z-score = -0.72; Call = inactive
PRM1 (protamine 1): TNF reporter robust z-score = -0.19; Call = inactive
DEFB126 (defensin beta 126): TNF reporter robust z-score = 0.8; Call = inactive
DEFB126 (defensin beta 126): TNF reporter robust z-score = 1.76; Call = inactive
DEFB126 (defensin beta 126): TNF reporter robust z-score = 1.14; Call = inactive
DEFB126 (defensin beta 126): TNF reporter robust z-score = 1.63; Call = inactive
FOSB (FosB proto-oncogene, AP-1 transcription factor subunit): TNF reporter robust z-score = 0.31; Call = inactive
FOSB (FosB proto-oncogene, AP-1 transcription factor subunit): TNF reporter robust z-score = -0.17; Call = inactive
FOSB (FosB proto-oncogene, AP-1 transcription factor subunit): TNF reporter robust z-score = 0.43; Call = inactive
FOSB (FosB proto-oncogene, AP-1 transcription factor subunit): TNF reporter robust z-score = 0.75; Call = inactive
NAALADL2 (N-acetylated alpha-linked acidic dipeptidase like 2): TNF reporter robust z-score = 0.73; Call = inactive
NAALADL2 (N-acetylated alpha-linked acidic dipeptidase like 2): TNF reporter robust z-score = 2.98; Call = active
NAALADL2 (N-acetylated alpha-linked acidic dipeptidase like 2): TNF reporter robust z-score = 3.14; Call = active
NAALADL2 (N-acetylated alpha-linked acidic dipeptidase like 2): TNF reporter robust z-score = 0.02; Call = inactive
CLDN20 (claudin 20): TNF reporter robust z-score = -0.39; Call = inactive
CLDN20 (claudin 20): TNF reporter robust z-score = 0.2; Call = inactive
CLDN20 (claudin 20): TNF reporter robust z-score = -0.36; Call = inactive
CLDN20 (claudin 20): TNF reporter robust z-score = -0.68; Call = inactive
CHFR (checkpoint with forkhead and ring finger domains): TNF reporter robust z-score = 0.38; Call = inactive
CHFR (checkpoint with forkhead and ring finger domains): TNF reporter robust z-score = -1.28; Call = inactive
CHFR (checkpoint with forkhead and ring finger domains): TNF reporter robust z-score = -0.74; Call = inactive
CHFR (checkpoint with forkhead and ring finger domains): TNF reporter robust z-score = 0.82; Call = inactive
AKIRIN1 (akirin 1): TNF reporter robust z-score = -1.36; Call = inactive
AKIRIN1 (akirin 1): TNF reporter robust z-score = -0.56; Call = inactive
AKIRIN1 (akirin 1): TNF reporter robust z-score = -0.67; Call = inactive
AKIRIN1 (akirin 1): TNF reporter robust z-score = -0.9; Call = inactive
